Earlier results in patent US8440423B2, “Bioremediation of nanomaterials” (U.S. Department of Energy, priority 2007, dated 2013).
At least one compound was matched to its structure with a doubt left.

Details: cited from earlier work

c12c3c4c5c1c1c6c7c2c2c8c3c3c9c4c4c%10c5c5c1c1c6c6c%11c7c2c2c7c8c3c3c8c9c4c4c9c%10c5c5c1c1c6c6c%11c2c2c7c3c3c8c4c4c9c5c1c1c6c2c3c41 [C60, C60 fullerene]
mutagenicity (Ames assay): not mutagenic
